{"source": "PubChem BioAssay AID1259425, University of Nebraska Medical Center – 2018", "aim": "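Compare each knockdown with KSR1 silencing using changes in marker transcripts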 (primary screen)", "cell system": "HCT116 human colon cancer cells", "reagents": "siRNA pool against human genes, 50 nM siRNA", "measured": "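mRNA of six signature genes measured together by branched-DNA assay after 50 nM siRNA pool, blank removed, divided by geometric mean of two housekeeping genes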", "direction": "BNIP3L mRNA: higher = more BNIP3L transcript after knockdown; NDRG1 mRNA: higher = more NDRG1 transcript after knockdown", "note": "The whole screen tested about 14,000 reagents; shown is a part drawn at random. Not all columns of the deposit are shown. Not stated in the record: the time to read-out."}
The opening 4 entries as a preview:
{"gene symbol": "BRF1 (BRF1 general transcription factor IIIB subunit)", "BNIP3L mRNA, set 1": 0.0834, "NDRG1 mRNA, set 1": 0.352}
{"gene symbol": "SLC11A1", "BNIP3L mRNA, set 1": 0.0956, "NDRG1 mRNA, set 1": 0.159}
{"gene symbol": "TSC22D3 (TSC22 domain family member 3)", "BNIP3L mRNA, set 1": 0.124, "NDRG1 mRNA, set 1": 1.12}
{"gene symbol": "MFN1 (mitofusin 1)", "BNIP3L mRNA, set 1": 0.114, "NDRG1 mRNA, set 1": 0.0868}

Main list, from the start:
{"gene symbol": "BRF1 (BRF1 general transcription factor IIIB subunit)", "BNIP3L mRNA, set 1": 0.0834, "NDRG1 mRNA, set 1": 0.352}
{"gene symbol": "SLC11A1", "BNIP3L mRNA, set 1": 0.0956, "NDRG1 mRNA, set 1": 0.159}
{"gene symbol": "TSC22D3 (TSC22 domain family member 3)", "BNIP3L mRNA, set 1": 0.124, "NDRG1 mRNA, set 1": 1.12}
{"gene symbol": "MFN1 (mitofusin 1)", "BNIP3L mRNA, set 1": 0.114, "NDRG1 mRNA, set 1": 0.0868}
{"gene symbol": "PGM5 (phosphoglucomutase 5)", "BNIP3L mRNA, set 1": 0.455, "NDRG1 mRNA, set 1": 0.236}
{"gene symbol": "GNG7 (G protein subunit gamma 7)", "BNIP3L mRNA, set 1": 0.149, "NDRG1 mRNA, set 1": 0.557}
{"gene symbol": "CLIC1 (CLIC family member 1)", "BNIP3L mRNA, set 1": 0.0494, "NDRG1 mRNA, set 1": 0.514}
{"gene symbol": "VCPKMT (valosin containing protein lysine methyltransferase)", "BNIP3L mRNA, set 1": 0.113, "NDRG1 mRNA, set 1": 0.198}
{"gene symbol": "MXD4 (MAX dimerization protein 4)", "BNIP3L mRNA, set 1": 0.134, "NDRG1 mRNA, set 1": 0.16}
{"gene symbol": "FOXP3 (forkhead box P3)", "BNIP3L mRNA, set 1": 0.128, "NDRG1 mRNA, set 1": 0.102}
{"gene symbol": "FKBP8 (FKBP prolyl isomerase 8)", "BNIP3L mRNA, set 1": 0.0528, "NDRG1 mRNA, set 1": 0.04}
{"gene symbol": "ADAM8 (ADAM metallopeptidase domain 8)", "BNIP3L mRNA, set 1": 0.164, "NDRG1 mRNA, set 1": 0.982}
{"gene symbol": "KLK12 (kallikrein related peptidase 12)", "BNIP3L mRNA, set 1": 0.0693, "NDRG1 mRNA, set 1": 0.112}
{"gene symbol": "SYPL1 (synaptophysin like 1)", "BNIP3L mRNA, set 1": 0.11, "NDRG1 mRNA, set 1": 0.185}
{"gene symbol": "DPEP1 (dipeptidase 1)", "BNIP3L mRNA, set 1": 0.0678, "NDRG1 mRNA, set 1": 0.184}
{"gene symbol": "ZNF668 (zinc finger protein 668)", "BNIP3L mRNA, set 1": 0.119, "NDRG1 mRNA, set 1": 0.181}
{"gene symbol": "TLL2 (tolloid like 2)", "BNIP3L mRNA, set 1": 0.0677, "NDRG1 mRNA, set 1": 0.0923}
{"gene symbol": "PQBP1 (polyglutamine binding protein 1)", "BNIP3L mRNA, set 1": 0.134, "NDRG1 mRNA, set 1": 0.131}
{"gene symbol": "KHDRBS3", "BNIP3L mRNA, set 1": 0.0833, "NDRG1 mRNA, set 1": 0.513}
{"gene symbol": "GJB1 (gap junction protein beta 1)", "BNIP3L mRNA, set 1": 0.0741, "NDRG1 mRNA, set 1": 0.178}
{"gene symbol": "KLHL27 (kelch like family member 27)", "BNIP3L mRNA, set 1": 0.105, "NDRG1 mRNA, set 1": 0.137}
{"gene symbol": "ZCRB1 (zinc finger CCHC-type and RNA binding motif containing 1)", "BNIP3L mRNA, set 1": 0.13, "NDRG1 mRNA, set 1": 0.0973}
{"gene symbol": "SNW1 (SNW domain containing 1)", "BNIP3L mRNA, set 1": 0.0872, "NDRG1 mRNA, set 1": 0.121}
{"gene symbol": "POU2F2 (POU class 2 homeobox 2)", "BNIP3L mRNA, set 1": 0.0802, "NDRG1 mRNA, set 1": 0.0694}
{"gene symbol": "MYCLP1 (MYCL pseudogene 1)", "BNIP3L mRNA, set 1": 0.128, "NDRG1 mRNA, set 1": 0.284}
{"gene symbol": "PIMREG (PICALM interacting mitotic regulator)", "BNIP3L mRNA, set 1": 0.12, "NDRG1 mRNA, set 1": 0.0996}
{"gene symbol": "MMP23A (matrix metallopeptidase 23A (pseudogene))", "BNIP3L mRNA, set 1": 0.14, "NDRG1 mRNA, set 1": 0.212}
{"gene symbol": "FTHL17 (ferritin heavy chain like 17)", "BNIP3L mRNA, set 1": 0.151, "NDRG1 mRNA, set 1": 0.382}
{"gene symbol": "GYG1 (glycogenin 1)", "BNIP3L mRNA, set 1": 0.0727, "NDRG1 mRNA, set 1": 0.12}
{"gene symbol": "HEG1 (heart development protein with EGF like domains 1)", "BNIP3L mRNA, set 1": 0.403, "NDRG1 mRNA, set 1": 0.622}
{"gene symbol": "DDX5 (DEAD-box helicase 5)", "BNIP3L mRNA, set 1": 0.111, "NDRG1 mRNA, set 1": 0.251}
{"gene symbol": "TRIM48 (tripartite motif containing 48)", "BNIP3L mRNA, set 1": 0.0918, "NDRG1 mRNA, set 1": 0.138}
{"gene symbol": "PIGY (phosphatidylinositol glycan anchor biosynthesis class Y)", "BNIP3L mRNA, set 1": 0.0394, "NDRG1 mRNA, set 1": 0.255}
{"gene symbol": "TMC5 (transmembrane channel like 5)", "BNIP3L mRNA, set 1": 0.117, "NDRG1 mRNA, set 1": 0.336}
{"gene symbol": "NCBP1 (nuclear cap binding protein subunit 1)", "BNIP3L mRNA, set 1": 0.122, "NDRG1 mRNA, set 1": 0.118}
{"gene symbol": "CENPF (centromere protein F)", "BNIP3L mRNA, set 1": 0.112, "NDRG1 mRNA, set 1": 0.366}
